These are yes or no findings as the source states them, for the method shown. Some results given as binding are weak or reduced against the parent protein; the word gives no strength.
T1: human GPR158 receptor (on HeLa cells highly expressing a GPR158 receptor) (human) (UniProt Q5T848)
T1 sequence (looked up): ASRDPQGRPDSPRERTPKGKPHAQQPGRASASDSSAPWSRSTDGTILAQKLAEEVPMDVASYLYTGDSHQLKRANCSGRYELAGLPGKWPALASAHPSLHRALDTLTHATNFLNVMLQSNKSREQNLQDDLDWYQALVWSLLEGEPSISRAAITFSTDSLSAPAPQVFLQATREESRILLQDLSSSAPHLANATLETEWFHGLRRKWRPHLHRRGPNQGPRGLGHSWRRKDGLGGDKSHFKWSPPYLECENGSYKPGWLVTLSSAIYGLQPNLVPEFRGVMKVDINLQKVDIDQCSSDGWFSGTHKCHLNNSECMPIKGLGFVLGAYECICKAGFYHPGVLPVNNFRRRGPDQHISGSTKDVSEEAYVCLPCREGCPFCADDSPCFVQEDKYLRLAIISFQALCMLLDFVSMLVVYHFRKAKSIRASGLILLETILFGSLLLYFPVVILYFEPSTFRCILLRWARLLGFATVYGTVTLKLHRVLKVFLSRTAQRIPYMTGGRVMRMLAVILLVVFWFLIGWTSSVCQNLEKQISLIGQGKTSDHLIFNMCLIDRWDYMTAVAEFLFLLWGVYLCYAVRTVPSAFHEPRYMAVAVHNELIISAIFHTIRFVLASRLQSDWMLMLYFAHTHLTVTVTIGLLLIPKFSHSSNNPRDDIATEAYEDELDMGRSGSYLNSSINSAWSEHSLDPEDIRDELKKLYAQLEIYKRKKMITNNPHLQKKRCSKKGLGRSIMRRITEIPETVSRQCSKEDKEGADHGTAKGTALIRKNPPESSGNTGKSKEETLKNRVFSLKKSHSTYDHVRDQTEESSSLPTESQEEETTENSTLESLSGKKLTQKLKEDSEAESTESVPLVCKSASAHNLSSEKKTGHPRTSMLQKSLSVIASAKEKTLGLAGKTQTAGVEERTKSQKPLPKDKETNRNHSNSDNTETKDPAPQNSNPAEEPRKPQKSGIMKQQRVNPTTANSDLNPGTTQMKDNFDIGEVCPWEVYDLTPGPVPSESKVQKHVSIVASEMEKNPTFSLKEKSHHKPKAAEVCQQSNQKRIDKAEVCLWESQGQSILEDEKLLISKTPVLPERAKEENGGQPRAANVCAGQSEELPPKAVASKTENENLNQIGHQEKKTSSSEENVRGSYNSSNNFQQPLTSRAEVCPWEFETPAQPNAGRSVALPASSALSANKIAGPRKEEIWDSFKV


Molecular target: T1, human GPR158 receptor (on HeLa cells highly expressing a GPR158 receptor) (human)
Experiment: binding rate to HeLa cells highly expressing GPR158, in vitro culture with the polypeptide

binding	Binder
binds	AGAVTAADLSLTQLESL [Bony fish species-polypeptide (osteocalcin-derived peptide derived from a Wuchang fish)]
binds	NYNRFYNARAAPTPDPLEPL [osteocalcin-derived peptide of SEQ ID NO.4]
binds	YLGASVPSPDPLEPT [osteocalcin-derived peptide derived from a mouse (mO15)]
binds	SDFYERYFMHYKTPMEQM [Bird species-polypeptide (osteocalcin-derived peptide derived from a mandarin duck)]
binds	YAQDSGVAGAPPNPLEAQ [Poultry species-polypeptide (osteocalcin-derived peptide derived from a chicken)]
binds	SNLRNAVFGTPVRDPLESK [osteocalcin-derived peptide of SEQ ID NO.5]
binds	LDPGLGAPAPYPDPLEPR [Livestock species-polypeptide (osteocalcin-derived peptide derived from a sheep)]

— patent US20260167692A1, “POLYPEPTIDES AND RELATED SUBSTANCES AGAINST HAIR LOSS AND DERMATITIS, AND USES THEREOF” (SHENZHEN INSTITUTES OF ADVANCED TECHNOLOGY, priority 2023, published 2026)
